Data as given in PubChem BioAssay AID1053208 (Peter MacCallum Cancer Centre, 2014).
This is an unselected part of about 17,000 reagents tested. Over the whole deposit, 788 (4.7%) are marked active. 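Calls rest on z-score classes alone; an extra cut-off of viability at most 70% of control was not applied to them.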 Further read-outs or replicates are left out here.

Purpose: 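Find knock-downs that sensitise mouse osteosarcoma cells to doxorubicin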 (primary screen)
Cells: mouse osteosarcoma cells, early-passage culture from an engineered mouse model of fibroblastic bone tumour
Reagent: siRNA pool against mouse genes, 40 nM
Duration: about 120 h (48 h before drug, then 72 h with drug)
Treatment: doxorubicin 100 nM for 72 h, roughly 30-40% inhibitory dose
Detection: 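Viability read as ATP luminescence after 72 h of 100 nM doxorubicin or none, duplicate wells averaged, scaled to non-targeting siRNA, then expressed as robust z-scores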
Scale: viability z-score with doxorubicin: higher = more viable cells under doxorubicin; viability z-score without drug: higher = more viable cells with knock-down alone
Rule for the call: 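a pool counts as active when its viability z-score with doxorubicin is -2 or below and its z-score without drug lies between -2 and 2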

{"target gene": "Zfp324 (GeneID 243834)", "combined z-score class": "no change with or without drug", "viability z-score with doxorubicin": 0.45, "viability z-score without drug": 0.84, "activity call": "inactive"}
{"target gene": "Mypop (GeneID 232934)", "combined z-score class": "no change with or without drug", "viability z-score with doxorubicin": 0, "viability z-score without drug": 0.51, "activity call": "inactive"}
{"target gene": "Mrps31 (GeneID 57312)", "combined z-score class": "no change with or without drug", "viability z-score with doxorubicin": 0.45, "viability z-score without drug": -0.84, "activity call": "inactive"}
{"target gene": "5730493B19Rik (GeneID 70630)", "combined z-score class": "no change with or without drug", "viability z-score with doxorubicin": -0.22, "viability z-score without drug": 0.84, "activity call": "inactive"}
{"target gene": "D130079A08Rik (GeneID 320671)", "combined z-score class": "no change with or without drug", "viability z-score with doxorubicin": 0.9, "viability z-score without drug": 0, "activity call": "inactive"}
{"target gene": "Cyp2d13 (GeneID 68444)", "combined z-score class": "no change with or without drug", "viability z-score with doxorubicin": -1.12, "viability z-score without drug": 1.18, "activity call": "inactive"}
{"target gene": "Nabp2 (GeneID 69917)", "combined z-score class": "no change with or without drug", "viability z-score with doxorubicin": -1.69, "viability z-score without drug": -0.84, "activity call": "inactive"}
{"target gene": "Pgm2l1 (GeneID 70974)", "combined z-score class": "no change with or without drug", "viability z-score with doxorubicin": 0.56, "viability z-score without drug": -0.17, "activity call": "inactive"}
{"target gene": "Grik5 (GeneID 14809)", "combined z-score class": "no change with or without drug", "viability z-score with doxorubicin": 0, "viability z-score without drug": -0.84, "activity call": "inactive"}
{"target gene": "Vmn1r69 (GeneID 252904)", "combined z-score class": "no change with or without drug", "viability z-score with doxorubicin": -1.01, "viability z-score without drug": -0.84, "activity call": "inactive"}
{"target gene": "Clns1a (GeneID 12729)", "combined z-score class": "no change with or without drug", "viability z-score with doxorubicin": -1.57, "viability z-score without drug": -1.69, "activity call": "inactive"}
{"target gene": "Snx30 (GeneID 209131)", "combined z-score class": "no change with or without drug", "viability z-score with doxorubicin": 1.35, "viability z-score without drug": 0.84, "activity call": "inactive"}

Only “viability z-score with doxorubicin”, for 2 of the entries above:
Clns1a (GeneID 12729)	-1.57
Snx30 (GeneID 209131)	1.35
